Laboratory results reported in paper PMC5655141, “Allosteric fine-tuning of the conformational equilibrium poises the chaperone BiP for post-translational regulation” (eLife, 2017).
These are yes or no findings as the source states them, for the method shown. Some results given as binding are weak or reduced against the parent protein; the word gives no strength.

Sequences of proteins named here, by UniProt entry; tags and fusion partners are left off. A change or cut given only in a name is not applied to a line headed by its entry. A line that says so, or that is headed by a name, gives the form on record, which may keep a tag or linker.
BiP* (full-length ATPase deficient T229G BiP construct, hamster BiP(1-641)) (G3I8R9, form named): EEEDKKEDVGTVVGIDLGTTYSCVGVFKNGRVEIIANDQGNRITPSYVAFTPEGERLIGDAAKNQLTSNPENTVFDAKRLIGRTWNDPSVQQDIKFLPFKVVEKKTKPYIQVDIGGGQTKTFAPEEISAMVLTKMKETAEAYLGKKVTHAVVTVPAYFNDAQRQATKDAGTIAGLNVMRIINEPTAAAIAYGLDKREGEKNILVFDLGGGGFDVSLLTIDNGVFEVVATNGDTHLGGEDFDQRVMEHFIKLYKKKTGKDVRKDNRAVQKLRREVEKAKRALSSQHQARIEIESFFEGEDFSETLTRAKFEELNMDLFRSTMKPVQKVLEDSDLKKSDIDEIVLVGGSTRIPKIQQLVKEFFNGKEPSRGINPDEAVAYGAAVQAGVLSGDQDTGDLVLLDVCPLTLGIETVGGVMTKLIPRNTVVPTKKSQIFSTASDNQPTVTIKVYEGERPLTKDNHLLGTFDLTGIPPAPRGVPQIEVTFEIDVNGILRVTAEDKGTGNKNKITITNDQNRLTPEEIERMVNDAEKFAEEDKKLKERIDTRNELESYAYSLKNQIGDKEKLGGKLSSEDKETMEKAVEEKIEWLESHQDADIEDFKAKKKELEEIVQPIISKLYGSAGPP

Key:
[1] = biological target: BiP* (full-length ATPase deficient T229G BiP construct, hamster BiP(1-641)) (hamster) (UniProt G3I8R9); assay: methyl-TROSY NMR (comparison of spectra); ADP-bound BiP* with P2 peptide; 2D 1H-13C SOFAST-HMQC, 25°C, 20 mM HEPES, 100 mM KCl, 5 or 40 mM MgCl2, pH 7.6, 5 or 40 mM ADP; both purified
[2] = biological target: BiP* (full-length ATPase deficient T229G BiP construct, hamster BiP(1-641)) (hamster) (UniProt G3I8R9); assay: methyl-TROSY NMR (comparison of spectra); ATP-bound BiP* with and without P2 peptide; 2D 1H-13C SOFAST-HMQC, 25°C, 20 mM HEPES, 100 mM KCl, 5 or 40 mM MgCl2, pH 7.6, 5 or 40 mM ATP; both purified

- binding [1]: binds
- binding [2]: binds
Binder: HTFPAVL [P2 (model substrate peptide HTFPAVL)]
